Source: US20210188972A1 (A AND G PHARMACEUTICAL, published 2021)
Results are given in words; binding and its absence hold for the method and conditions named. Binding calls can cover weak binding; strength is not graded here.

Tests used:
[1] = target: PTGFRN on SCSC cells (hamster spindle cell sarcomatoid carcinoma) (hamster); test: flow cytometry, SCSC cells
[2] = target: PTGFRN on SCSC cells (hamster spindle cell sarcomatoid carcinoma) (hamster); test: flow cytometry, hamster spindle cell carcinoma cells
[3] = target: PTGFRN on SCSC cells (hamster spindle cell sarcomatoid carcinoma) (hamster); test: flow cytometry (RFI), SCSC cells, 33B7 at 5 µg/mL
[4] = target: PTGFRN on SCSC cells (hamster spindle cell sarcomatoid carcinoma) (hamster); test: flow cytometry on cancer cells, 33B7 at 5 µg/mL with rabbit anti-mouse IgG and Alexa fluor 647 goat anti-rabbit IgG (Example 3)

Measured: binding

B1: 33B7 (antibody, V domains shown)
VH: DVQLQESGPGLVKPSQSLSLTCSVTGCSITSGYYWNWIRQFPGNKLEWMGYISHDGNNNYSPSLKNRISITRDTSKNQFFLKLNSVTTEDTATYYCARGFYYYGYFGYWGQGTTLTVSS
VL: DIVMSQSPSSLAVSVGEKVTMSCKSSQSLLYSTNQKNYLAWYQQKPGQSPKPLIYWASTRESGVPDRFTGSGSGTDFTLTISSVKAEDLAVYYCQQYYSYRTFGGGTKLEIKR
notes: Murine hybridoma monoclonal IgG (ATCC PTA-124281); also called AG02; AGO2
binds: all assays above
